Laboratory results taken from patent US20120214970A1.
Results are given in words; binding and its absence hold for the method and conditions named. Some entries that bind do so weakly or less than the wild type.

Protein sequences, listed by entry. Tags and fused reporters are not part of them. Lines headed by an entry give the natural chain unless they say otherwise; changes in a name come on top. Residues count along the entry.
UniProt P02769, residues 25-607: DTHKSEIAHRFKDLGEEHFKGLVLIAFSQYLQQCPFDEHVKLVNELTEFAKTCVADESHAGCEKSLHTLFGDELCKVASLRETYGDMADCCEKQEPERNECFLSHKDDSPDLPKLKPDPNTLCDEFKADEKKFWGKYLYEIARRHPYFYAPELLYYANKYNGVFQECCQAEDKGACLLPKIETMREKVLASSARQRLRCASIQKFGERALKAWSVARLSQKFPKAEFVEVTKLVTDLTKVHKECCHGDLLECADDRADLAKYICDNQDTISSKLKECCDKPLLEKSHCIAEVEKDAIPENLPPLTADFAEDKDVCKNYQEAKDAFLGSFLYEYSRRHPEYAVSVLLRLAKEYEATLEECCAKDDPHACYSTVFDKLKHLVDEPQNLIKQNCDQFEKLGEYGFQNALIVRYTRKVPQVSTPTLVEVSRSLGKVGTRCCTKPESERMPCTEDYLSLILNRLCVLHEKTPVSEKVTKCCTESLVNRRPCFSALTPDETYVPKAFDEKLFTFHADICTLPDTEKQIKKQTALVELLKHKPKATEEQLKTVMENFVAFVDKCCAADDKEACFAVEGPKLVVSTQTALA
UniProt P08069: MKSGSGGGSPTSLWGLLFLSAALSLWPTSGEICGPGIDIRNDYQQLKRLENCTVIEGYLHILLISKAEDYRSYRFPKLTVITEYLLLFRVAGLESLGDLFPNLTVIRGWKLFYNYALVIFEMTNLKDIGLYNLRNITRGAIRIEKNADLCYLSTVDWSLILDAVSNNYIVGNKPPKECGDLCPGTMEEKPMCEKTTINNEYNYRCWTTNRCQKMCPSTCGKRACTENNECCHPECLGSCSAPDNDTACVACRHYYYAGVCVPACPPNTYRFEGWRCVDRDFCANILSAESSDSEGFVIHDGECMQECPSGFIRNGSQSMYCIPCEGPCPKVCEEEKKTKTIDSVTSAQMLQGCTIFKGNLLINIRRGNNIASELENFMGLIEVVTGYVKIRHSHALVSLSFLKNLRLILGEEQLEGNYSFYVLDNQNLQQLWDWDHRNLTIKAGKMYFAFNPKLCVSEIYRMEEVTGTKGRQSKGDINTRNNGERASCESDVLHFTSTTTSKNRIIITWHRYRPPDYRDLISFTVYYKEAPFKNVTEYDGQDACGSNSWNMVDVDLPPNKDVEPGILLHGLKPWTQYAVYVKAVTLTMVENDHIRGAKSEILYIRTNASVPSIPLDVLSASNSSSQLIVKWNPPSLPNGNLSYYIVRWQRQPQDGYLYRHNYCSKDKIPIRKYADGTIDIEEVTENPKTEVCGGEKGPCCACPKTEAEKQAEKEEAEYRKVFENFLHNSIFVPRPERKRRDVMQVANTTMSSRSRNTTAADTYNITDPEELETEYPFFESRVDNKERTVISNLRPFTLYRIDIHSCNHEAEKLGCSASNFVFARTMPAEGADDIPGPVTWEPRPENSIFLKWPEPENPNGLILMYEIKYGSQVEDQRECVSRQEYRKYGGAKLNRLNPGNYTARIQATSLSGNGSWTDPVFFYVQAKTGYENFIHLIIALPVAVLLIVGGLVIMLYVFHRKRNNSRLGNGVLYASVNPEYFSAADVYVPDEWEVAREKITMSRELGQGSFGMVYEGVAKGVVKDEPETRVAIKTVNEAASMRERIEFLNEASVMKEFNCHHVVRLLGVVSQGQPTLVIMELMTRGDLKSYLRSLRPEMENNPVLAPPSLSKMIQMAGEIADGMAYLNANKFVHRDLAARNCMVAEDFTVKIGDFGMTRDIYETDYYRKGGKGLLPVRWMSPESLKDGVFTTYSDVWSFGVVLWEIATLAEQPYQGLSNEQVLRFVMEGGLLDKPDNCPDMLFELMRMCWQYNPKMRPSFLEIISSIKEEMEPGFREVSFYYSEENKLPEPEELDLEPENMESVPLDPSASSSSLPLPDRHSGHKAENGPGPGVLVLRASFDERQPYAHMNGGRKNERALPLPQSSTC
UniProt P22629: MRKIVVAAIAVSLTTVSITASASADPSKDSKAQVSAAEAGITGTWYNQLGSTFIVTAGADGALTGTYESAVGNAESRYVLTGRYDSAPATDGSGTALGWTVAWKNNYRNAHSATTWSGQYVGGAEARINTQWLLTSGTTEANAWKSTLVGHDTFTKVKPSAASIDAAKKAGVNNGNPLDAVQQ

Key:
[1] = biological target: biotinamidocaproyl-Bovine Serum Albumin (bovine) (UniProt P02769); assay: AFM dynamic force spectroscopy
[2] = biological target: AP-IGF1R biotinylated by co-expressed BirA-ER (human type 1 insulin-like growth factor receptor fused to the acceptor peptide tag), on COS7 cells (human) (UniProt P08069); assay: fluorescence microscopy of live COS7 cells, Alexa Fluor 555 conjugate
[3] = biological target: AP-IGF1R biotinylated by co-expressed BirA-ER (human type 1 insulin-like growth factor receptor fused to the acceptor peptide tag), on COS7 cells (human) (UniProt P08069); assay: fluorescence microscopy of live COS7 cells, Alexa Fluor 555 conjugate, 0.4 µM, 4° C.

binding [1]	binding [2]	binding [3]	Substance
binds	binds		Streptavidin (core streptavidin with His6 at the C-terminus) (from UniProt P22629 37-163)
binds	binds	binds	Traptavidin (S52G R53D mutant of core streptavidin with C-terminal His6 tag) (from UniProt P22629 37-163)
